For test [1], the target named is Flag-BMAL1 (pLV7-CAG-1xFlag-Bmal1, full length) (mouse). Description: native gel or EMSA; 20 μg total cell extract with 32P-labelled E-box duplex, room temperature 20 min; supershift with 1 μg anti-Myc, anti-RELA or normal IgG on ice 30 min.
The target in test [2] is BMAL1, endogenous in mouse fibroblasts (mouse (endogenous in fibroblasts)). Described as above.

Here are results for 2 molecules from PMC8648109.

No constants are given. Whether binding was seen depends on the method and setting. Binding calls can cover weak binding; strength is not graded here. For some assays here: Where a sequence is shown, tags or fusion partners need not be part of it.

B1: 3xFlag-CLOCK (protein, UniProt O08785 1-855)
chain: MVFTVSCSKMSSIVDRDDSSIFDGLVEEDDKDKAKRVSRNKSEKKRRDQFNVLIKELGSMLPGNARKMDKSTVLQKSIDFLRKHKETTAQSDASEIRQDWKPTFLSNEEFTQLMLEALDGFFLAIMTDGSIIYVSESVTSLLEHLPSDLVDQSIFNFIPEGEHSEVYKILSTHLLESDSLTPEYLKSKNQLEFCCHMLRGTIDPKEPSTYEYVRFIGNFKSLTSVSTSTHNGFEGTIQRTHRPSYEDRVCFVATVRLATPQFIKEMCTVEEPNEEFTSRHSLEWKFLFLDHRAPPIIGYLPFEVLGTSGYDYYHVDDLENLAKCHEHLMQYGKGKSCYYRFLTKGQQWIWLQTHYYITYHQWNSRPEFIVCTHTVVSYAEVRAERRRELGIEESLPETAADKSQDSGSDNRINTVSLKEALERFDHSPTPSASSRSSRKSSHTAVSDPSSTPTKIPTDTSTPPRQHLPAHEKMTQRRSSFSSQSINSQSVGPSLTQPAMSQAANLPIPQGMSQFQFSAQLGAMQHLKDQLEQRTRMIEANIHRQQEELRKIQEQLQMVHGQGLQMFLQQSNPGLNFGSVQLSSGNSNIQQLTPVNMQGQVVPANQVQSGHISTGQHMIQQQTLQSTSTQQSQQSVMSGHSQQTSLPSQTPSTLTAPLYNTMVISQPAAGSMVQIPSSMPQNSTQSATVTTFTQDRQIRFSQGQQLVTKLVTAPVACGAVMVPSTMLMGQVVTAYPTFATQQQQAQTLSVTQQQQQQQQQPPQQQQQQQQSSQEQQLPSVQQPAQAQLGQPPQQFLQTSRLLHGNPSTQLILSAAFPLQQSTFPPSHHQQHQPQQQQQLPRHRTDSLTDPSKVQPQ
Consider B1, for which, in test [1], the binding result is reported as “binds”.

B2: CLOCK, endogenous in mouse fibroblasts (protein, UniProt O08785 1-855)
chain: B1 chain
Consider B2, for which the binding entry in test [2] was “binds”.
